Source: publication PMC7987452
No constants are given. Whether binding was seen depends on the method and setting. Binding seen in cells or lysates may run through a third protein. Some entries that bind do so weakly or less than the wild type.

Chains of the proteins cited; added tags and fusions are not shown. Residues count along the entry.
UniProt Q9Z2L0: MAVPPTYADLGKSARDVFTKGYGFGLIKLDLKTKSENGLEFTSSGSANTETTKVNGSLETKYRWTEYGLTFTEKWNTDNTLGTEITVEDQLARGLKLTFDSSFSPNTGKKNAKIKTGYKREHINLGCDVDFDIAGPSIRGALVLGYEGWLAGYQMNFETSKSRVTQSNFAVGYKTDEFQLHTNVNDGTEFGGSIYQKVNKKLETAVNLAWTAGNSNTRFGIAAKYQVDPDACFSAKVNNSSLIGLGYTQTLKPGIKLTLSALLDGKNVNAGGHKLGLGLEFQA
UniProt P29994: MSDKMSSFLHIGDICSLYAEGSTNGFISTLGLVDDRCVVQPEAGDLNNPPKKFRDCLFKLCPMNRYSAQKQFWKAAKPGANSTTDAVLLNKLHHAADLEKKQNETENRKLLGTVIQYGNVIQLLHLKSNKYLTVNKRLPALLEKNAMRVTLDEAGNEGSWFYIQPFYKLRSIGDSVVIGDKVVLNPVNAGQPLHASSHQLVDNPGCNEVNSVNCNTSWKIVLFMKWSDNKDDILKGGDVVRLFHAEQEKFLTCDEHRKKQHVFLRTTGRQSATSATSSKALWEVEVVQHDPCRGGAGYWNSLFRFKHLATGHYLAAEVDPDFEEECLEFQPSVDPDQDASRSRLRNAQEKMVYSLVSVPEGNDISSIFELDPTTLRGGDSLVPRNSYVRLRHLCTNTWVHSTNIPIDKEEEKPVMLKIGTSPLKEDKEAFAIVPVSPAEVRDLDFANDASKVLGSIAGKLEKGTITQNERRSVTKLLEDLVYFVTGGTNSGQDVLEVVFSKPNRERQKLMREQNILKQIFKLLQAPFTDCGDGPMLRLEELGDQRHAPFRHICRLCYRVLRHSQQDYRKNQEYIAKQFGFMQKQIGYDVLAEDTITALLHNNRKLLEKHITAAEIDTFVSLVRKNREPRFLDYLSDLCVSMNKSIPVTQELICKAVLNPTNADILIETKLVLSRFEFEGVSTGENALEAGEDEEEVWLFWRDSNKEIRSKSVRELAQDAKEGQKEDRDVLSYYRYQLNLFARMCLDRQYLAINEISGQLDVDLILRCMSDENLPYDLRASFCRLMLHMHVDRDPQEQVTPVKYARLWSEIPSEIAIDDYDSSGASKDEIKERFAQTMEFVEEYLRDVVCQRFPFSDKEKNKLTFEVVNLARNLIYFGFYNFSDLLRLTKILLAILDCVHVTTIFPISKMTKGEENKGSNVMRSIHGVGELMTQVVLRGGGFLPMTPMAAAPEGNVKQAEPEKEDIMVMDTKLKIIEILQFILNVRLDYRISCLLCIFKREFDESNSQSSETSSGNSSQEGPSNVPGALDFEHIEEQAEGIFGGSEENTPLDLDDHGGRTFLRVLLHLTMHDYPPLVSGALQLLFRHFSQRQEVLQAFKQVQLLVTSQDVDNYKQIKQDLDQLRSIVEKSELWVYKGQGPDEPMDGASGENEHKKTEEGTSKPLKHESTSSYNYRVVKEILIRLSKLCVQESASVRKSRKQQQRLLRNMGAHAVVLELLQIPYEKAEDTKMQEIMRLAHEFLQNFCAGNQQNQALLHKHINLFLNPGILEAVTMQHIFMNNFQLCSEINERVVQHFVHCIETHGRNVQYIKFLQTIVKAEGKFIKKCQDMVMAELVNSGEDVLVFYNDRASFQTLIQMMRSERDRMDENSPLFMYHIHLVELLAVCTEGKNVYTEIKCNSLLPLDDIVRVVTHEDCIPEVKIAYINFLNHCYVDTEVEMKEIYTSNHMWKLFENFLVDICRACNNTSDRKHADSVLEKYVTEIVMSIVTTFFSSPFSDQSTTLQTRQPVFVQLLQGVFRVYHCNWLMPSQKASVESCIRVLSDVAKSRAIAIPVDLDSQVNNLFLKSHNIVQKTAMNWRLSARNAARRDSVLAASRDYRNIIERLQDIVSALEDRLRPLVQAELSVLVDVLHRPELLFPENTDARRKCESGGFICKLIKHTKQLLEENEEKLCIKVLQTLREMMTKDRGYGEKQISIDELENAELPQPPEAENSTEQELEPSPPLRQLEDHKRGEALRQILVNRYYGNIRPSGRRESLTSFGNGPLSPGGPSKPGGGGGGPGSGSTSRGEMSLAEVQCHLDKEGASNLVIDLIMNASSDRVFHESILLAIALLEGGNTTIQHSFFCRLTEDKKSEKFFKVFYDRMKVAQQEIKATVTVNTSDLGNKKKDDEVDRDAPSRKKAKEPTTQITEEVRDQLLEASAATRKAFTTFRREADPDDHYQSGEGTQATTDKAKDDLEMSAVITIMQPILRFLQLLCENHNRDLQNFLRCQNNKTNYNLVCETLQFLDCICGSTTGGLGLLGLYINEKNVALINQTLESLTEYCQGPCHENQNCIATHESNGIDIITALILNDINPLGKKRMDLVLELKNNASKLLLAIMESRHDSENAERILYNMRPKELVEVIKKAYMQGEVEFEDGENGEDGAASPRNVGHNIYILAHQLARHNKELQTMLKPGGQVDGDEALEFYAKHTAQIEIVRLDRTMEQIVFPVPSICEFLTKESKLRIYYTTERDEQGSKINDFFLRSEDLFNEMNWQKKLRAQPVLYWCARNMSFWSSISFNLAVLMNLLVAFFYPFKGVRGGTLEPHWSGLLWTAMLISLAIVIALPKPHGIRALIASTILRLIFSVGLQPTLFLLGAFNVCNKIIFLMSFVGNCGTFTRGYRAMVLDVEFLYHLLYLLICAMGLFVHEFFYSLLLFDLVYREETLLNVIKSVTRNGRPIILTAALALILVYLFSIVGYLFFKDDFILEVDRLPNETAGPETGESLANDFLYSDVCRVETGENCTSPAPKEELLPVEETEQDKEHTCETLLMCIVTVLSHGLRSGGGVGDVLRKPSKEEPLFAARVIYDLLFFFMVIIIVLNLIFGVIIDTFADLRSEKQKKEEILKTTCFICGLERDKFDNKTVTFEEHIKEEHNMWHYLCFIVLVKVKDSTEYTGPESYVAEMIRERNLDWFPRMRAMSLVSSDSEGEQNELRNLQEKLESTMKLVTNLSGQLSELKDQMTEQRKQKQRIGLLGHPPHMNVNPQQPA
UniProt P48721, residues 47-679: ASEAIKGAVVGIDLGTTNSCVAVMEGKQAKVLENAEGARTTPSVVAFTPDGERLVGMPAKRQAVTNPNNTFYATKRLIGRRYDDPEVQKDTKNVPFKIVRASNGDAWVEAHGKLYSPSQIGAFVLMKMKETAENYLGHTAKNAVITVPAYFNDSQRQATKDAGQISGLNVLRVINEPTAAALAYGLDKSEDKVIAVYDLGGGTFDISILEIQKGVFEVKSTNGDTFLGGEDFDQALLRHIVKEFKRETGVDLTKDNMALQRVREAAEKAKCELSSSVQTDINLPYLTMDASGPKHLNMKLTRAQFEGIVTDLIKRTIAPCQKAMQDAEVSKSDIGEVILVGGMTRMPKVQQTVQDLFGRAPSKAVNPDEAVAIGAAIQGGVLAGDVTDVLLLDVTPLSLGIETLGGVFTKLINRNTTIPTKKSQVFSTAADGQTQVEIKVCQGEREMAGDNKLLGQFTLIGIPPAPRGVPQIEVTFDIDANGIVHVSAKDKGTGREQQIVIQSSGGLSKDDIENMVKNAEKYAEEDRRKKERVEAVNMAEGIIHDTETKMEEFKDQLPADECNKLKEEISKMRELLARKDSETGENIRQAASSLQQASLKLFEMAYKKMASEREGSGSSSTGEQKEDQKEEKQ

Experiments:
[1] = target: voltage-dependent anion-selective channel 1 (rat (endogenous in rat NP cells)) (UniProt Q9Z2L0); experiment: co-IP; endogenous proteins in precleared lysates of rat NP cells (control or 1 MPa compression for 36 h); incubated overnight at 4°C with anti-IP3R1 or anti-VDAC1 antibody, protein A sepharose beads 2 h at 4°C; western blot
[2] = target: inositol 1,4,5-trisphosphate receptor 1 (rat (endogenous in rat NP cells)) (UniProt P29994); experiment: as above

binding [1] | binding [2] | Substance
binds | binds | glucose-regulated protein 75 (from UniProt P48721 47-679)
binds |  | inositol 1,4,5-trisphosphate receptor 1 (from UniProt P29994 1-2750)
 | binds | voltage-dependent anion-selective channel 1 (from UniProt Q9Z2L0 1-283)
